{
  "source": "PubChem BioAssay AID330",
  "about": "(DTP/NCI, 2004)",
  "tested_on": "P388 leukemia ip, CD2F1 mice, survival T/C",
  "assay": "NCI In Vivo Anticancer Drug Screen. Data for tumor model P388 Leukemia (intraperitoneal) in CD2F1 (CDF1) mice",
  "settings": "T/C endpoint: median survival time, higher T/C = longer survival",
  "key": {"[1]": {"settings": "dose: 240.0 mg/kg/injection, schedule: Q01DX005 (ip), vehicle: saline"}, "[2]": {"settings": "dose: 60.0 mg/kg/injection, schedule: Q01DX005 (ip), vehicle: saline"}, "[3]": {"settings": "dose: 120.0 mg/kg/injection, schedule: Q01DX005 (ip), vehicle: saline"}, "[4]": {"settings": "dose: 200.0 mg/kg/injection, schedule: Q01DX009 (ip), vehicle: saline with Tween-80"}, "[5]": {"settings": "dose: 100.0 mg/kg/injection, schedule: Q01DX005 (ip), vehicle: Klucel (hydroxypropylcellulose) (HPC)"}, "[6]": {"settings": "dose: 200.0 mg/kg/injection, schedule: Q01DX005 (ip), vehicle: saline with Tween-80"}},
  "note": "The list is a part of this screen's results and no random one: it gathers tests that were run many times, whatever their T/C, doses with no T/C, and many T/C values between a quarter and a half above the control. Further doses and runs are listed elsewhere. T/C: endpoint of the treated group in % of that of the vehicle group. Some doses have a count of surviving animals in place of a T/C: the source files T/C as zero there, which appears to mark a toxic dose or a test without result, not a measured value. Some survivor counts are full or nearly so, which does not show that the dose was tolerated: the source hardly ever lists a survival T/C far under the control, and the zero likely stands for such cases as well. Counts of survivors are from the toxicity check (mostly the fifth day) where no day follows; animals may have died later. Schedule codes are those of the source, taken here to give the interval after Q, in days (D) or hours (H), and the number of doses after X. Some entries were tested several times; the values are given in rising order. Where survival is the endpoint, the PubChem record calls one and a half times the control and up active, and a quarter to a half above the control has no call in these data; cut-offs in other NCI protocols can differ. Some T/C values carry the count of animals alive at the toxicity check (mostly the fifth day); where none is given, no animal had died by that day.",
  "data": [
    {"molecule": "CCC(=O)/C=C/c1ccc(N(C)C)cc1", "values": [
      {"measurement": "survivor count", "setting": "dose: 400.0 mg/kg/injection, schedule: Q04DX003 (ip), vehicle: Klucel (hydroxypropylcellulose) (HPC)", "result": "5 of 6"}
    ]},
    {"molecule": "Cc1cc(C)nc(NS(=O)(=O)c2ccc(N=NC3=C(O)C(c4ccccc4)N(c4ccccc4)C3=O)cc2)n1", "note": "(centres undefined)", "values": [
      {"measurement": "survivor count", "setting": "[1]", "result": "2 of 6"}
    ]},
    {"molecule": "CN(C)CCCNc1nnc(NCCCN(C)C)c2cc3ccccc3cc12", "values": [
      {"measurement": "survivor count", "setting": "[2]", "result": "0 of 6"},
      {"measurement": "survivor count", "setting": "[3]", "result": "0 of 6"},
      {"measurement": "survivor count", "setting": "[1]", "result": "0 of 6"}
    ]},
    {"molecule": "CN(C)c1ccc(/C=C/c2ccccn2)cc1", "values": [
      {"measurement": "survivor count", "setting": "dose: 50.0 mg/kg/injection, schedule: Q01DX009 (ip), vehicle: saline with Tween-80", "result": "6 of 6"},
      {"measurement": "survivor count", "setting": "dose: 100.0 mg/kg/injection, schedule: Q01DX009 (ip), vehicle: saline with Tween-80", "result": "0 of 6"},
      {"measurement": "survivor count", "setting": "[4]", "result": "0 of 6"}
    ]},
    {"molecule": "Nc1cccc2nccn12", "values": [
      {"measurement": "survivor count", "setting": "dose: 100.0 mg/kg/injection, schedule: Q01DX009 (ip), vehicle: saline", "result": "0 of 6 and 1 of 6"},
      {"measurement": "survivor count", "setting": "dose: 200.0 mg/kg/injection, schedule: Q01DX009 (ip), vehicle: saline", "result": "0 of 6"}
    ]},
    {"molecule": "COc1ccc(NS(=O)(=O)c2ccc(NC(=O)NCCCl)cc2)nn1", "values": [
      {"measurement": "survivor count", "setting": "[5]", "result": "6 of 6"}
    ]},
    {"molecule": "O=C(OCOC(=O)N1CCOCC1)N1CCOCC1", "values": [
      {"measurement": "survivor count", "setting": "dose: 120.0 mg/kg/injection, schedule: Q01DX005 (ip), vehicle: saline with Tween-80", "result": "6 of 6"}
    ]},
    {"molecule": "O=NN(CCCl)C(=O)NCCSSCCNC(=O)N(CCCl)N=O", "note": "(tested in a mixture with another compound)", "values": [
      {"measurement": "T/C", "setting": "dose: 3.12 mg/kg/injection, schedule: Q01DX005 (ip), vehicle: Klucel (hydroxypropylcellulose) (HPC)", "result": "125 % of control"},
      {"measurement": "T/C", "setting": "dose: 6.25 mg/kg/injection, schedule: Q01DX005 (ip), vehicle: Klucel (hydroxypropylcellulose) (HPC)", "result": "128 % of control"},
      {"measurement": "survivor count", "setting": "[5]", "result": "4 of 4 and 6 of 6"},
      {"measurement": "survivor count", "setting": "dose: 200.0 mg/kg/injection, schedule: Q01DX005 (ip), vehicle: Klucel (hydroxypropylcellulose) (HPC)", "result": "4 of 6"},
      {"measurement": "survivor count", "setting": "dose: 400.0 mg/kg/injection, schedule: Q01DX005 (ip), vehicle: Klucel (hydroxypropylcellulose) (HPC)", "result": "0 of 5"}
    ]},
    {"molecule": "CCNc1ccc2c(-c3ccccc3C(=O)O)c3ccc(=[N+](CC)CC)cc-3oc2c1", "values": [
      {"measurement": "survivor count", "setting": "[6]", "result": "1 of 5"}
    ]},
    {"molecule": "O=c1c2ccccc2nc(-c2ccc(Cl)cc2)n1O", "values": [
      {"measurement": "survivor count", "setting": "[6]", "result": "6 of 6"}
    ]},
    {"molecule": "O=C1C=CC(=O)N1C(=O)NCNC(=O)N1C(=O)C=CC1=O", "values": [
      {"measurement": "T/C", "setting": "dose: 100.0 mg/kg/injection, schedule: Q01DX005 (ip), vehicle: saline with Tween-80", "result": "130 % of control"},
      {"measurement": "survivor count", "setting": "[6]", "result": "0 of 6, 2 of 5, 3 of 5"}
    ]},
    {"molecule": "CN(C)CCCOC1(Cc2ccc(F)cc2)CCCCCC1", "values": [
      {"measurement": "survivor count", "setting": "[6]", "result": "0 of 5"}
    ]},
    {"molecule": "COc1cccc(C=Nc2ccccc2O)c1O.[O]=[V]", "values": [
      {"measurement": "survivor count", "setting": "dose: 100.0 mg/kg/injection, schedule: Q01DX009 (ip), vehicle: Klucel (hydroxypropylcellulose) (HPC)", "result": "5 of 6"},
      {"measurement": "survivor count", "setting": "dose: 200.0 mg/kg/injection, schedule: Q01DX009 (ip), vehicle: Klucel (hydroxypropylcellulose) (HPC)", "result": "0 of 6"}
    ]},
    {"molecule": "CC(N=[N+]=[N-])n1nnnc1-c1ccccc1", "note": "(centres undefined)", "values": [
      {"measurement": "survivor count", "setting": "dose: 400.0 mg/kg/injection, schedule: Q01DX001 (ip), vehicle: Klucel (hydroxypropylcellulose) (HPC)", "result": "2 of 6"}
    ]},
    {"molecule": "C1=C(c2ccccc2)C(c2ccc(OCCN3CCCCC3)cc2)Oc2ccccc21", "note": "(centres undefined)", "values": [
      {"measurement": "survivor count", "setting": "[6]", "result": "6 of 6"}
    ]},
    {"molecule": "CCCN(CCC)C(=O)[S-].CCCN(CCC)C(=O)[S-].[Ni+2]", "values": [
      {"measurement": "survivor count", "setting": "dose: 6.25 mg/kg/injection, schedule: Q01DX009 (ip), vehicle: saline with Tween-80", "result": "6 of 6"}
    ]},
    {"molecule": "C=CCOC(=O)OCCCO", "values": [
      {"measurement": "survivor count", "setting": "[1]", "result": "2 of 6"}
    ]},
    {"molecule": "O=c1[nH]c2ccccc2nc1Cl", "values": [
      {"measurement": "survivor count", "setting": "[4]", "result": "5 of 6"}
    ]},
    {"molecule": "NNC(=O)CNC(=O)Nc1n[nH]c(=S)s1", "values": [
      {"measurement": "survivor count", "setting": "[4]", "result": "5 of 6"}
    ]},
    {"molecule": "COC(=O)Nc1nc2ccc(C(=O)OC(C)C)cc2[nH]1", "values": [
      {"measurement": "T/C", "setting": "dose: 200.0 mg/kg/injection, schedule: Q04DX003 (ip), vehicle: saline with Tween-80", "result": "132 % of control"},
      {"measurement": "T/C", "setting": "dose: 400.0 mg/kg/injection, schedule: Q04DX003 (ip), vehicle: saline with Tween-80", "result": "144 and 148 % of control"}
    ]},
    {"molecule": "CS(=O)(=O)CC#N", "values": [
      {"measurement": "survivor count", "setting": "[2]", "result": "0 of 6"},
      {"measurement": "survivor count", "setting": "[3]", "result": "0 of 6"},
      {"measurement": "survivor count", "setting": "[1]", "result": "0 of 6"}
    ]},
    {"molecule": "OCCNCO", "values": [
      {"measurement": "T/C", "setting": "[2]", "result": "125 and 136 % of control [5 of 6 alive]"},
      {"measurement": "T/C", "setting": "[3]", "result": "137 and 137 % of control [5 of 6 alive]"},
      {"measurement": "T/C", "setting": "[1]", "result": "128 [5 of 6 alive] and 140 % of control"},
      {"measurement": "survivor count", "setting": "dose: 400.0 mg/kg/injection, schedule: Q01DX005 (ip), vehicle: saline", "result": "5 of 6"}
    ]}
  ]
}
